{
  "source": "PubChem BioAssay AID248",
  "about": "(DTP/NCI, 2004)",
  "tested_on": "L1210 leukemia ip in BDF1 mice, survival T/C",
  "assay": "NCI In Vivo Anticancer Drug Screen. Data for tumor model L1210 Leukemia (intraperitoneal) in B6D2F1 (BDF1) mice",
  "details": "T/C endpoint: mean survival time, higher T/C = longer survival",
  "key": {"[1]": {"details": "dose: 400.0 mg/kg/injection, schedule: Q01DX009 (ip), vehicle: saline with Tween-80"}, "[2]": {"details": "dose: 400.0 mg/kg/injection, schedule: Q01DX001 (ip), vehicle: saline"}, "[3]": {"details": "dose: 400.0 mg/kg/injection, schedule: Q01DX009 (ip), vehicle: saline"}},
  "note": "The list does not hold the whole screen: it is rich in T/C values a quarter to a half above the control, in often repeated tests (any T/C) and in doses without a T/C. Other doses and runs of a compound stand elsewhere. T/C: endpoint of the treated group in % of that of the vehicle group. Some doses have a count of surviving animals in place of a T/C: the source files T/C as zero there, which appears to mark a toxic dose or a test without result, not a measured value. Some survivor counts are full or nearly so, which does not show that the dose was tolerated: the source hardly ever lists a survival T/C far under the control, and the zero likely stands for such cases as well. Counts of survivors are from the toxicity check (mostly the fifth day) where no day follows; animals may have died later. Schedule codes are those of the source, taken here to give the interval after Q, in days (D) or hours (H), and the number of doses after X. Some schedule codes hold Z or #, which are not explained here. For survival time, this PubChem deposit counts one and a half times the control or more as active, and values a quarter to a half above the control carry no call in these data; other NCI protocols may use other cut-offs. Some T/C values are followed by the survivors on the day toxicity was checked, most often the fifth; without a count, all were alive then.",
  "data": [
    {"smiles": "Nc1[nH]c(=S)ncc1-c1ccccc1Cl", "values": [
      {"measurement": "survivor count", "setting": "dose: 50.0 mg/kg/injection, schedule: Q01DX009 (ip), vehicle: Klucel (hydroxypropylcellulose) (HPC)", "result": "3 of 3"},
      {"measurement": "survivor count", "setting": "dose: 200.0 mg/kg/injection, schedule: Q01DX009 (ip), vehicle: Klucel (hydroxypropylcellulose) (HPC)", "result": "3 of 3"}
    ]},
    {"smiles": "O=NN1CCCNC1=O", "values": [
      {"measurement": "T/C", "setting": "dose: 25.0 mg/kg/injection, schedule: Q01DX Z (ip), vehicle: carboxymethylcellulose (CMC)", "result": "128 % of control"},
      {"measurement": "survivor count", "setting": "dose: 125.0 mg/kg/injection, schedule: Q01DX Z (ip), vehicle: carboxymethylcellulose (CMC)", "result": "5 of 6"},
      {"measurement": "survivor count", "setting": "dose: 150.0 mg/kg/injection, schedule: Q01DX Z (ip), vehicle: carboxymethylcellulose (CMC)", "result": "3 of 6"}
    ]},
    {"smiles": "COc1cccc(OC)c1OC(=O)Nc1cccc(SC)c1", "values": [
      {"measurement": "survivor count", "setting": "dose: 100.0 mg/kg/injection, schedule: Q01DX009 (ip), vehicle: saline with Tween-80", "result": "3 of 3"}
    ]},
    {"smiles": "C=C1C(=O)OC2C3=C(C)C(=O)CC3C3(C)CC3C12", "note": "(stereo unspecified)", "values": [
      {"measurement": "survivor count", "setting": "dose: 100.0 mg/kg/injection, schedule: Q01DX001 (ip), vehicle: water", "result": "2 of 6"},
      {"measurement": "survivor count", "setting": "dose: 200.0 mg/kg/injection, schedule: Q01DX001 (ip), vehicle: water", "result": "0 of 6"}
    ]},
    {"smiles": "COc1cc2cnccc2cc1OCc1ccccc1", "values": [
      {"measurement": "survivor count", "setting": "dose: 200.0 mg/kg/injection, schedule: Q01DX009 (ip), vehicle: water", "result": "0 of 6"},
      {"measurement": "survivor count", "setting": "dose: 400.0 mg/kg/injection, schedule: Q01DX009 (ip), vehicle: water", "result": "1 of 6"}
    ]},
    {"smiles": "Cc1cccc(C)c1N(COCC(C)C)C(=O)CCl", "values": [
      {"measurement": "survivor count", "setting": "[1]", "result": "0 of 6"}
    ]},
    {"smiles": "C#CCCCCCCl", "values": [
      {"measurement": "survivor count", "setting": "dose: 400.0 mg/kg/injection, schedule: Q01DX001 (ip), vehicle: other", "result": "1 of 6"}
    ]},
    {"smiles": "COc1cc(O)c2c(c1)Cc1cc(C)cc(O)c1C2=O", "values": [
      {"measurement": "survivor count", "setting": "dose: 50.0 mg/kg/injection, schedule: Q04DX002 (ip), vehicle: Klucel (hydroxypropylcellulose) (HPC)", "result": "3 of 3"},
      {"measurement": "survivor count", "setting": "dose: 100.0 mg/kg/injection, schedule: Q04DX002 (ip), vehicle: Klucel (hydroxypropylcellulose) (HPC)", "result": "3 of 3"},
      {"measurement": "survivor count", "setting": "dose: 200.0 mg/kg/injection, schedule: Q04DX002 (ip), vehicle: Klucel (hydroxypropylcellulose) (HPC)", "result": "0 of 3"},
      {"measurement": "survivor count", "setting": "dose: 400.0 mg/kg/injection, schedule: Q04DX002 (ip), vehicle: Klucel (hydroxypropylcellulose) (HPC)", "result": "0 of 3"}
    ]},
    {"smiles": "CC(O)C(O)C(O)C(O)C(c1ccc(Cl)cc1)c1ccc(Cl)cc1", "note": "(stereo unspecified)", "values": [
      {"measurement": "survivor count", "setting": "dose: 200.0 mg/kg/injection, schedule: Q01DX001 (ip), vehicle: saline", "result": "1 of 4"},
      {"measurement": "survivor count", "setting": "[2]", "result": "0 of 4"}
    ]},
    {"smiles": "O=NN(CCBr)C(=O)Nc1ccccc1", "values": [
      {"measurement": "T/C", "setting": "dose: 55.5 mg/kg/injection, schedule: Q01DX001 (ip), vehicle: carboxymethylcellulose (CMC)", "result": "140 % of control"},
      {"measurement": "survivor count", "setting": "dose: 250.0 mg/kg/injection, schedule: Q01DX Z (ip), vehicle: carboxymethylcellulose (CMC)", "result": "2 of 6"},
      {"measurement": "survivor count", "setting": "dose: 400.0 mg/kg/injection, schedule: Q01DX Z (ip), vehicle: carboxymethylcellulose (CMC)", "result": "0 of 6"},
      {"measurement": "survivor count", "setting": "dose: 888.0 mg/kg/injection, schedule: Q01DX001 (ip), vehicle: carboxymethylcellulose (CMC)", "result": "2 of 10"}
    ]},
    {"smiles": "CNCCc1ccccc1", "values": [
      {"measurement": "survivor count", "setting": "[2]", "result": "0 of 6"}
    ]},
    {"smiles": "Cn1ccnc1CC(C)(O)c1ccccc1", "note": "(stereo unspecified)", "values": [
      {"measurement": "survivor count", "setting": "dose: 400.0 mg/kg/injection, schedule: Q01DX001 (ip), vehicle: Klucel (hydroxypropylcellulose) (HPC)", "result": "3 of 6"},
      {"measurement": "survivor count", "setting": "dose: 400.0 mg/kg/injection, schedule: Q01DX009 (ip), vehicle: Klucel (hydroxypropylcellulose) (HPC)", "result": "1 of 3"}
    ]},
    {"smiles": "COc1cc2c(cc1OCc1ccccc1)C(C#N)N(C(=O)c1ccccc1)C=C2", "note": "(stereo unspecified)", "values": [
      {"measurement": "survivor count", "setting": "[3]", "result": "6 of 6"}
    ]},
    {"smiles": "NC1CCCCCCCC1", "values": [
      {"measurement": "survivor count", "setting": "dose: 300.0 mg/kg/injection, schedule: Q01DX001 (ip), vehicle: acetone", "result": "0 of 6"}
    ]},
    {"smiles": "O=C(NCC(O)CNC(=O)Nc1ccc(C2=NCCCN2)cc1)Nc1ccc(C2=NCCCN2)cc1", "values": [
      {"measurement": "survivor count", "setting": "dose: 30.0 mg/kg/injection, schedule: Q01DX Z (ip), vehicle: water", "result": "0 of 6"},
      {"measurement": "T/C", "setting": "dose: 40.0 mg/kg/injection, schedule: Q01DX Z (ip), vehicle: carboxymethylcellulose (CMC)", "result": "137 % of control [5 of 6 alive]"},
      {"measurement": "survivor count", "setting": "dose: 40.0 mg/kg/injection, schedule: Q01DX Z (ip), vehicle: water", "result": "0 of 6"},
      {"measurement": "survivor count", "setting": "dose: 50.0 mg/kg/injection, schedule: Q01DX Z (ip), vehicle: water", "result": "0 of 6"},
      {"measurement": "survivor count", "setting": "dose: 80.0 mg/kg/injection, schedule: Q01DX Z (ip), vehicle: carboxymethylcellulose (CMC)", "result": "0 of 6"}
    ]},
    {"smiles": "O=C1COC(=O)CO1", "values": [
      {"measurement": "survivor count", "setting": "[3]", "result": "0 of 6"}
    ]},
    {"smiles": "OC(CBr)c1ccc(Cl)cc1", "note": "(stereo unspecified)", "values": [
      {"measurement": "survivor count", "setting": "[1]", "result": "6 of 6"}
    ]},
    {"smiles": "CCOc1ccc(Nc2nc(=O)[nH]c3ccccc23)cc1CN(CCCl)CCCl", "values": [
      {"measurement": "T/C", "setting": "dose: 100.0 mg/kg/injection, schedule: Q04DX002 (ip), vehicle: saline", "result": "130 % of control"}
    ]},
    {"smiles": "Nc1ccc(S(=O)(=O)Nc2ccc(Nc3c4ccccc4nc4ccccc34)cc2)cc1", "values": [
      {"measurement": "T/C", "setting": "dose: 1.5 mg/kg/injection, schedule: Q01DX009 (ip), vehicle: saline with Tween-80", "result": "126 % of control"},
      {"measurement": "T/C", "setting": "dose: 3.0 mg/kg/injection, schedule: Q01DX001 (ip), vehicle: saline with Tween-80", "result": "142 % of control"},
      {"measurement": "T/C", "setting": "dose: 3.0 mg/kg/injection, schedule: Q04DX003 (ip), vehicle: saline with Tween-80", "result": "139 % of control"},
      {"measurement": "T/C", "setting": "dose: 6.0 mg/kg/injection, schedule: Q01DX001 (ip), vehicle: saline with Tween-80", "result": "130 % of control"},
      {"measurement": "T/C", "setting": "dose: 6.0 mg/kg/injection, schedule: Q04DX003 (ip), vehicle: saline with Tween-80", "result": "134 % of control"},
      {"measurement": "T/C", "setting": "dose: 12.0 mg/kg/injection, schedule: Q01DX001 (ip), vehicle: saline with Tween-80", "result": "136 % of control"},
      {"measurement": "T/C", "setting": "dose: 12.0 mg/kg/injection, schedule: Q01DX009 (ip), vehicle: saline with Tween-80", "result": "136 % of control"},
      {"measurement": "T/C", "setting": "dose: 12.0 mg/kg/injection, schedule: Q04DX003 (ip), vehicle: saline with Tween-80", "result": "136 % of control"},
      {"measurement": "T/C", "setting": "dose: 24.0 mg/kg/injection, schedule: Q01DX001 (ip), vehicle: saline with Tween-80", "result": "132 % of control"},
      {"measurement": "T/C", "setting": "dose: 24.0 mg/kg/injection, schedule: Q04DX003 (ip), vehicle: saline with Tween-80", "result": "136 % of control"}
    ]},
    {"smiles": "CCC[CH2][Sn]([CH2]C)([CH2]C)[CH2]C", "values": [
      {"measurement": "survivor count", "setting": "dose: 400.0 mg/kg/injection, schedule: Q04DX002 (ip), vehicle: saline", "result": "0 of 3"}
    ]}
  ]
}
